In PubChem BioAssay AID330 (DTP/NCI, 2004) one finds survivor count and T/C data, which are given here for 28 compounds.

The list does not hold the whole screen: it gathers tests that were run many times, whatever their T/C, doses with no T/C, and many T/C values between a quarter and a half above the control. Other doses and runs of a compound stand elsewhere. T/C: endpoint of the treated group in % of that of the vehicle group. Some doses have a count of surviving animals in place of a T/C: the source holds a T/C of zero for them, seemingly a mark for toxic or unscored doses. Some survivor counts are full or nearly so, which does not show that the dose was tolerated: survival well below the control is almost never listed, so the zero probably covers shortened survival too. Survivors were counted at the toxicity check, usually on the fifth day, unless a day is given; later deaths do not show. Schedules are NCI's codes, read here as Q, the interval in days (D) or hours (H), X, the number of doses. Some entries were tested several times; the results are listed from low to high. Where survival is the endpoint, the PubChem record calls one and a half times the control and up active, and a quarter to a half above the control has no call in these data; cut-offs in other NCI protocols can differ. Some T/C values carry the count of animals alive at the toxicity check (mostly the fifth day); without a count, all were alive then.

The test system of this experiment is P388 leukemia ip, CD2F1 mice, survival T/C. The experiment in a line: NCI In Vivo Anticancer Drug Screen. Data for tumor model P388 Leukemia (intraperitoneal) in CD2F1 (CDF1) mice. The following applies: T/C endpoint: median survival time, higher T/C = longer survival.
Where [1] appears, read: dose: 200.0 mg/kg/injection, schedule: Q01DX009 (ip), vehicle: Klucel (hydroxypropylcellulose) (HPC).
Setting [2] is: dose: 240.0 mg/kg/injection, schedule: Q01DX005 (ip), vehicle: saline.
Where [3] appears, read: dose: 200.0 mg/kg/injection, schedule: Q01DX009 (ip), vehicle: other.
[4] abbreviates: dose: 200.0 mg/kg/injection, schedule: Q01DX009 (ip), vehicle: saline with Tween-80.
The mark [5] stands for this setting: dose: 100.0 mg/kg/injection, schedule: Q01DX009 (ip), vehicle: saline with Tween-80.
[6] abbreviates: dose: 100.0 mg/kg/injection, schedule: Q01DX005 (ip), vehicle: saline with Tween-80.
Setting [7] is: dose: 200.0 mg/kg/injection, schedule: Q01DX005 (ip), vehicle: saline with Tween-80.

Take `COC(=O)C(CCC(=O)CCl)N1C(=O)c2ccccc2C1=O` (stereo unspecified): the survivor count was 3 of 6 (dose: 100.0 mg/kg/injection, schedule: Q01DX009 (ip), vehicle: Klucel (hydroxypropylcellulose) (HPC)) and 0 of 6 under setting [1].
For the compound `O=C(O)C[N-]c1ccccc1.O=C(O)C[N-]c1ccccc1.[Ni+2]`, the survivor count (dose: 25.0 mg/kg/injection, schedule: Q01DX009 (ip), vehicle: saline with Tween-80) was 6 of 6.
Regarding `CCC(C)C1NC(=O)C(NC(=O)c2c3nc4c(C(=O)NC5C(=O)NC(C(C)CC)C(=O)N6CCCC6C(=O)N(C)CC(=O)N(C)C(C(C)C)C(=O)OC5C)cc([N+](=O)[O-])c(C)c4oc-3c(C)c(=O)c2N)C(C)OC(=O)C(C(C)C)N(C)C(=O)CN(C)C(=O)C2CCCN2C1=O` (stereo unspecified), the T/C was 148 % of control (dose: 0.1 mg/kg/injection, schedule: Q01DX009 (ip), vehicle: Klucel (hydroxypropylcellulose) (HPC)); 139 % of control (dose: 0.18 mg/kg/injection, schedule: Q01DX009 (ip), vehicle: water); 147 % of control (dose: 0.27 mg/kg/injection, schedule: Q01DX009 (ip), vehicle: water). Also, the survivor count reads like this: (dose: 0.9 mg/kg/injection, schedule: Q01DX009 (ip), vehicle: water) 6 of 6; (dose: 1.6 mg/kg/injection, schedule: Q01DX009 (ip), vehicle: Klucel (hydroxypropylcellulose) (HPC)) 6 of 6.
Regarding `COC(=O)C(C)CSc1ccccc1` (stereo unspecified), under setting [2], the survivor count is 0 of 6.
As for `O=C(O)C(CSC(c1ccccc1)(c1ccccc1)c1ccccc1)NC(c1ccccc1)(c1ccccc1)c1ccccc1` (stereo unspecified), under setting [3], the survivor count was 4 of 6.
`COc1ccc2nc3cc(Cl)ccc3c(NCCCCCCNc3c4ccc(Cl)cc4nc4ccc(OC)nc34)c2n1`: under setting [1], the survivor count is on record as 4 of 6.
In the case of `CC(=O)Oc1cc(OC(C)=O)c2c(c1)C(=O)c1cc(C)cc(OC(C)=O)c1C2=O`, the survivor count reads like this: (dose: 200.0 mg/kg/injection, schedule: Q04DX002 (ip), vehicle: saline with Tween-80) 6 of 6; (dose: 400.0 mg/kg/injection, schedule: Q04DX002 (ip), vehicle: saline with Tween-80) 6 of 6.
As for `CCc1cccc(NC(=O)SCc2ccccc2)c1`, the survivor count under setting [4] was 5 of 6.
On to `CN(C)c1ccc(-c2nnc3c(c(=O)n(C)c(=O)n3C)[n+]2[O-])cc1`, for which the survivor count by setting is: (dose: 200.0 mg/kg/injection, schedule: Q01DX001 (ip), vehicle: Klucel (hydroxypropylcellulose) (HPC)) 3 of 6; (dose: 400.0 mg/kg/injection, schedule: Q01DX001 (ip), vehicle: Klucel (hydroxypropylcellulose) (HPC)) 4 of 6.
As for `CC(=O)Oc1c(Cl)c(Cl)c(C#N)c(Cl)c1C#N`, the survivor count runs as follows: under setting [5], 1 of 6 and 4 of 6; under setting [4], 0 of 6 and 2 of 6.
`O=C1NC(O)c2ccccc2O1` (stereo unspecified): for the setting “dose: 200.0 mg/kg/injection, schedule: Q01DX009 (ip), vehicle: saline”, the T/C is 137 % of control.
For the compound `CC(C)(C)N=C(Cc1ccccc1)N1CCCCC1`, the survivor count under setting [4] is 1 of 6.
Turning to `COc1cccc(-n2cc[n+](C)c2/C=N/O)c1`, the survivor count under setting [5] is listed as 0 of 6.
For the compound `Clc1cc(-c2ccccc2)no1`, the survivor count reads like this: (dose: 200.0 mg/kg/injection, schedule: Q04DX003 (ip), vehicle: Klucel (hydroxypropylcellulose) (HPC)) 2 of 6; (dose: 400.0 mg/kg/injection, schedule: Q04DX003 (ip), vehicle: Klucel (hydroxypropylcellulose) (HPC)) 0 of 6.
`CCOc1cccc2c(NCCCCCCCCNc3c4ccccc4nc4c(OCC)cccc34)c3ccccc3nc12`: the T/C runs as follows: (dose: 0.63 mg/kg/injection, schedule: Q01DX009 (ip), vehicle: other) 129 % of control; (dose: 1.25 mg/kg/injection, schedule: Q01DX009 (ip), vehicle: other) 138 % of control; (dose: 2.5 mg/kg/injection, schedule: Q01DX009 (ip), vehicle: other) 146 % of control; (dose: 5.0 mg/kg/injection, schedule: Q01DX009 (ip), vehicle: other) 141 % of control; (dose: 10.0 mg/kg/injection, schedule: Q01DX009 (ip), vehicle: other) 148 % of control. Further, the survivor count was 3 of 4 (dose: 15.0 mg/kg/injection, schedule: Q01DX009 (ip), vehicle: other) and 2 of 4 (dose: 20.0 mg/kg/injection, schedule: Q01DX009 (ip), vehicle: other).
Turning to `CCOC(=O)CC(=O)Nc1sc(CC)cc1C(=O)OCC`, the survivor count (dose: 240.0 mg/kg/injection, schedule: Q01DX005 (ip), vehicle: saline with Tween-80) is recorded as 6 of 6.
For `CCCNNC(N)=S`, the survivor count reads like this: (dose: 50.0 mg/kg/injection, schedule: Q01DX009 (ip), vehicle: other) 3 of 6; (dose: 100.0 mg/kg/injection, schedule: Q01DX009 (ip), vehicle: other) 0 of 6; under setting [3], 0 of 6.
`CCn1c2ccccc2c2cc(N=Nc3cc[n+]([O-])c4c(O)cccc34)ccc21`: the survivor count by setting is: under setting [5], 6 of 6; under setting [4], 6 of 6.
For `Nc1nc(N)c2c(Cl)c(CNc3ccc(C(=O)NC(CC(=O)O)CC(=O)O)cc3)ccc2n1`, the survivor count reads like this: (dose: 12.5 mg/kg/injection, schedule: Q01DX005 (ip), vehicle: saline with Tween-80) 6 of 6; (dose: 25.0 mg/kg/injection, schedule: Q01DX005 (ip), vehicle: saline with Tween-80) 5 of 6; (dose: 50.0 mg/kg/injection, schedule: Q01DX005 (ip), vehicle: saline with Tween-80) 6 of 6; under setting [6], 5 of 6; under setting [7], 6 of 6.
Consider `CCOc1ccc2nc3cc(N=Nc4ccc(N)nc4N)ccc3c(N)c2c1`, for which the survivor count under setting [6] is on record as 3 of 6 and the survivor count under setting [7] is on record as 0 of 6.
As for `CC(=O)N([Si](C)(C)C)[Si](C)(C)C`, the T/C (dose: 50.0 mg/kg/injection, schedule: Q01DX009 (ip), vehicle: saline) is 95, 96 [5 of 6 alive], 97, 146 % of control. Besides, the survivor count (dose: 100.0 mg/kg/injection, schedule: Q01DX009 (ip), vehicle: saline) is 6 of 6.
On to `NNc1n[nH]c(=S)n1N`, for which the survivor count (dose: 50.0 mg/kg/injection, schedule: Q01DX009 (ip), vehicle: Klucel (hydroxypropylcellulose) (HPC)) is recorded as 2 of 6.
For `CS(=O)(=O)Nc1cc(C(O)CNC2CC2)ccc1O` (stereo unspecified), the survivor count is, setting by setting: (dose: 3.0 mg/kg/injection, schedule: Q01DX001 (ip), vehicle: saline) 1 of 6; (dose: 6.0 mg/kg/injection, schedule: Q01DX001 (ip), vehicle: saline) 0 of 6; (dose: 12.5 mg/kg/injection, schedule: Q01DX001 (ip), vehicle: saline) 0 of 6; (dose: 25.0 mg/kg/injection, schedule: Q01DX001 (ip), vehicle: saline) 0 of 6; (dose: 50.0 mg/kg/injection, schedule: Q01DX001 (ip), vehicle: saline) 0 of 6.
Consider `c1ccc(N2CCSCC2)cc1`, for which the T/C (dose: 100.0 mg/kg/injection, schedule: Q04DX003 (ip), vehicle: saline) was 136 % of control.
As to `O=C1CCCN1.O=C1CCCN1.[Br][Co][Br]`, the survivor count under setting [5] was 6 of 6.
In the case of `CN(/N=C/c1ccc2c(c1)OCO2)c1ccc([N+](=O)[O-])cc1`, the survivor count (dose: 200.0 mg/kg/injection, schedule: Q01DX005 (ip), vehicle: Klucel (hydroxypropylcellulose) (HPC)) is given as 6 of 6.
For the compound `C=C(CN(C)C)C(=O)c1cc(C)ccc1C`, the survivor count (dose: 7.5 mg/kg/injection, schedule: Q01DX005 (ip), vehicle: saline) is recorded as 1 of 6; the survivor count (dose: 15.0 mg/kg/injection, schedule: Q01DX005 (ip), vehicle: saline) is on record as 0 of 6; the survivor count (dose: 30.0 mg/kg/injection, schedule: Q01DX005 (ip), vehicle: saline) is reported as 0 of 6; the survivor count (dose: 60.0 mg/kg/injection, schedule: Q01DX005 (ip), vehicle: saline) is given as 0 of 6; the survivor count (dose: 120.0 mg/kg/injection, schedule: Q01DX005 (ip), vehicle: saline) is 0 of 6; the survivor count under setting [2] is 0 of 6.
Regarding `NC(=S)N/N=C/c1ccc2c(c1)OCO2`, the survivor count under setting [4] is listed as 3 of 6.
